Source: article PMC10521975, “Species-specific cleavage of cGAS by picornavirus protease 3C disrupts mitochondria DNA-mediated immune sensing”

Target: SVV 3C H48A/C160A (seneca valley virus protease 3C, catalytically inactive double mutant) (seneca valley virus (SVV))
Experiment: co-IP; HEK-293T cells co-transfected with plasmids expressing pcGAS and 3C for 24 h, lysed with NP-40; supernatants immunoprecipitated with mouse anti-FLAG MAb and protein A/G plus-agarose for 6 h, beads washed three times with ice-cold PBS, immunoblot

B1: porcine cGAS (pcGAS) (enzyme, UniProt I3LM39 1-495)
chain: MAARRGKSTRTASEVGAAGPRASARSVNGAPTVPEAARPGARRNGPSRASGCRREKSGPDPREKPQVRTRTARAEDQAEGPSAPSERVEPPSAQGASLLRAGSCRAREARSARELRPQAGATELAAPARMEAPPGAWKLQTVLEKVRLSRHEISEAAEVVNWVVEHLLRRLQGGESEFKGVALLRTGSYYERVKISAPNEFDVMFKLEVPRIQLEEYCNSGAHYFVKFKRNPGGNPLEQFLEKEILSASKMLSKFRKIIKEEIKNIEGVTVERKRRGSPAVTLLISKPKEISVDIILALESKSSWPASTQKGLPISQWLGAKVKNNLKRQPFYLVPKHAKEGSGFQEETWRLSFSHIEKDILKNHGQSKTCCEIDGVKCCRKECLKLMKYLLEQLKKKFGNRRELAKFCSYHVKTAFFHVCTQDPHDNQWHLKNLECCFDNCVAYFLQCLKTEQLANYFIPGVNLFSRDLIDKPSKEFLSKQIEYERNNGFPVFW
With B1 the binding was “binds”.

These are yes or no findings as the source states them, for the method shown. Binding seen in cells or lysates may run through a third protein. Binding calls can cover weak binding; strength is not graded here.
